Assay results: paper PMC7567791 (Scientific Reports, 2020)
Results are given in words; binding and its absence hold for the method and conditions named. In cells and extracts the contact can be indirect. Some results given as binding are weak or reduced against the parent protein; the word gives no strength.

The chains behind the UniProt entries cited, without tags or fusion partners. Where a name states a change or a piece, a line headed by the entry shows the natural chain unless it says otherwise.
UniProt P49407, whole entry: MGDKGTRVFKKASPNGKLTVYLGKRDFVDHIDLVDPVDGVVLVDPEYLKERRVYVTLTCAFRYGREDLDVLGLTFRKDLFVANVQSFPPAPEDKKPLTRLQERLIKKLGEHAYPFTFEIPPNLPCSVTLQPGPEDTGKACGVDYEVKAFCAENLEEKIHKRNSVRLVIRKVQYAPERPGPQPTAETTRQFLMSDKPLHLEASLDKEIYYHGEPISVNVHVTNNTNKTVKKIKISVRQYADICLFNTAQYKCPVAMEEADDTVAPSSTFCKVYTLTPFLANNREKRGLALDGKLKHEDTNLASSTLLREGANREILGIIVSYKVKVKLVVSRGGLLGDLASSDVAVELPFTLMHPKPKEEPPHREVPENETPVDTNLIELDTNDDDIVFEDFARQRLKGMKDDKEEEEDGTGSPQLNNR
UniProt P32121, whole entry: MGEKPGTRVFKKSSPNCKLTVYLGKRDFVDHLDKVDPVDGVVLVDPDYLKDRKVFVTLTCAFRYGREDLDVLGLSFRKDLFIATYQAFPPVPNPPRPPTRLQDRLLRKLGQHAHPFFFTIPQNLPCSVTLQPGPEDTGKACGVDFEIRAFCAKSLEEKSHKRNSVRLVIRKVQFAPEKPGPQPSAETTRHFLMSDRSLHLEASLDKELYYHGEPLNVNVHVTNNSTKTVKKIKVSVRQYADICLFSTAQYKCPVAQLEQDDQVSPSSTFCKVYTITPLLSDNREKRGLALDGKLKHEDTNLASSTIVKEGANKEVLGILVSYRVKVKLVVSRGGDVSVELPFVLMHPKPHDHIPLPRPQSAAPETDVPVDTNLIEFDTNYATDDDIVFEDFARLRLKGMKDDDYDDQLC

Legend:
[1] = biological target: SP-FLAG-μ-OR-RlucII (human) (UniProt P35372); test: FRET or BRET; BRET^2 as a5 but after 60 min stimulation
[2] = biological target: SP-FLAG-μ-OR-RlucII (human) (UniProt P35372); test: FRET or BRET; BRET^2 in living parental HEK293A cells, μ-OR-RlucII donor and GFP^2-β-arrestin1 or -2 acceptor, 6 min stimulation with saturating DAMGO, fentanyl, loperamide or morphine, 37 °C, coelenterazine 400a
μ-OR-EYFP (human) [3] = biological target: μ-OR-EYFP (human) (UniProt P35372); test: FRET or BRET; BRET^1 as a1 but after 60 min stimulation with saturating agonist concentrations
μ-OR-EYFP (human) [4] = biological target: μ-OR-EYFP (human) (UniProt P35372); test: FRET or BRET; BRET^1 in living parental HEK293A cells (also ΔGRK3 cells), β-arrestin2-RlucII donor and μ-OR-EYFP acceptor, real time, peak at 6-12 min after DAMGO, fentanyl, loperamide or morphine, 37 °C, HBSS with 1 mM CaCl2, 1 mM MgCl2, 20 mM HEPES, 0.01% Pluronic F-68, pH 7.4, coelenterazine h

binding [1] | binding [2] | binding (μ-OR-EYFP (human) [3]) | binding (μ-OR-EYFP (human) [4]) | Substance
binds weakly | binds |  |  | GFP^2-β-arrestin1 (from UniProt P49407 1-418)
binds weakly | binds |  |  | GFP^2-β-arrestin2 (from UniProt P32121 1-409)
 |  | binds weakly | binds | β-arrestin2-RlucII (from UniProt P32121 1-409)
